PubChem BioAssay AID493246, Drosophila RNAi Screening Center | 2011
The screen tested about 21,000 reagents; shown is a random part of those with a known target gene and a result. In the full data, 429 (2%) are marked active. 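Values are raw and not normalised between plates; calls rest on per-plate z-scores that were not deposited.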 Names joined by + are all predicted targets of the reagent. Not stated in the record: the amount of reagent, the time to read-out.

Aim: 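Identify essential fly genes by loss of cell viability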 (primary screen)
Cells: Drosophila Kc and S2R+ cells
Reagent: long dsRNA against Drosophila genes
Measurement: 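Cell number per well after knock-down, printed as raw plate values; calls were based on per-plate z-scores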
Direction: Kc cell number and S2R+ cell number: higher = more cells remaining
Active means: 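Counted as a hit if cell number falls by a z-score of at least 3 within its plate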

gene	PubChem SID	Kc cell number, rep 1	Kc cell number, rep 2	S2R+ cell number, rep 1	S2R+ cell number, rep 2	activity call
CG32537	SID104199865	1.63e6	1.69e6	1.17e6	1.27e6	inactive
tctn + B9d2	SID104182952	1.74e6	1.79e6	1.26e6	1.46e6	inactive
Cyp12b2	SID104187156	1.69e6	1.61e6	1.31e6	1.54e6	inactive
cbc	SID104186749	1.49e6	1.67e6	1.15e6	1.14e6	inactive
Cpr30F	SID104182700	1.57e6	1.64e6	1.17e6	1.23e6	inactive
snz	SID104197761	1.47e6	1.48e6	1.07e6	1.11e6	inactive
verm	SID104190830	1.62e6	1.72e6	1.13e6	1.25e6	inactive
fog	SID104200438	1.80e6	1.82e6	1.10e6	1.19e6	inactive
CG4053	SID104195330	1.34e6	1.46e6	1.25e6	1.42e6	inactive
gek	SID104184480	1.35e6	1.46e6	1.21e6	1.26e6	inactive
nenya	SID104193630	1.02e6	1.38e6	1.07e6	1.05e6	inactive
Zip102B	SID104196947	1.48e6	1.49e6	1.02e6	1.11e6	inactive
CG11099	SID104185826	1.81e6	1.90e6	1.35e6	1.54e6	inactive
RpL37A	SID104182691	1.27e6	1.36e6	8.13e5	1.00e6	inactive
CG10041	SID104193971	1.60e6	1.85e6	1.38e6	1.52e6	inactive
Atg10	SID104185964	1.80e6	1.76e6	1.39e6	1.57e6	inactive
Coq3	SID104182960	1.35e6	1.37e6	1.01e6	1.15e6	inactive
Ndg	SID104186015	1.38e6	1.49e6	1.00e6	8.96e5	inactive
milt	SID104180757	1.52e6	1.69e6	1.18e6	1.33e6	inactive
milt	SID104180758	1.61e6	1.74e6	1.19e6	1.42e6	inactive
milt	SID104182073	1.33e6	1.41e6	5.48e5	7.30e5	inactive
CG8389	SID104186950	1.55e6	1.62e6	1.17e6	1.11e6	inactive
Fancm	SID104196140	1.45e6	1.55e6	1.14e6	1.21e6	inactive
CG12362	SID104189676	1.60e6	1.70e6	1.28e6	1.38e6	inactive
CG15366 (retired record)	SID104197831	1.69e6	1.39e6	1.15e6	1.31e6	inactive
CG7148	SID104191594	1.59e6	1.64e6	1.45e6	1.36e6	inactive
CG3123	SID104180362	1.65e6	1.60e6	1.06e6	1.24e6	inactive
CG32944	SID104191930	1.60e6	1.64e6	1.38e6	1.52e6	inactive
CG32944	SID104192133	1.74e6	1.76e6	1.40e6	1.51e6	inactive
Cpr62Ba	SID104188195	1.41e6	1.35e6	1.12e6	1.29e6	inactive
CG11668	SID104194133	1.48e6	1.46e6	1.07e6	1.19e6	inactive
CG31910 + snoRNA:Me28S-G2743 (retired record)	SID104180738	1.58e6	1.55e6	1.08e6	1.22e6	inactive
CG12729	SID104197676	1.47e6	1.49e6	1.00e6	1.11e6	inactive
CG33914	SID104184825	1.39e6	1.53e6	9.68e5	1.13e6	inactive
CG42686 (retired record)	SID104195039	7.17e5	8.50e5	4.46e5	5.24e5	active
CG42686 (retired record)	SID104195040	1.60e6	1.54e6	1.01e6	1.12e6	inactive
CG2790	SID104183837	1.35e6	1.37e6	1.14e6	1.08e6	inactive

A run of entries of the results above, for reference:
gene	PubChem SID	Kc cell number, rep 1	Kc cell number, rep 2	S2R+ cell number, rep 1	S2R+ cell number, rep 2	activity call
CG10041	SID104193971	1.60e6	1.85e6	1.38e6	1.52e6	inactive
Atg10	SID104185964	1.80e6	1.76e6	1.39e6	1.57e6	inactive
